Patent publication US20140134647A1 (LA JOLLA INSTITUTE FOR ALLERGY AND IMMUNOLOGY, published 2014)
No constants are given. Whether binding was seen depends on the method and setting. Some results given as binding are weak or reduced against the parent protein; the word gives no strength.

Chains of the proteins cited; added tags and fusions are not shown. Lines headed by an entry give the natural chain unless they say otherwise; changes in a name come on top.
UniProt P50592: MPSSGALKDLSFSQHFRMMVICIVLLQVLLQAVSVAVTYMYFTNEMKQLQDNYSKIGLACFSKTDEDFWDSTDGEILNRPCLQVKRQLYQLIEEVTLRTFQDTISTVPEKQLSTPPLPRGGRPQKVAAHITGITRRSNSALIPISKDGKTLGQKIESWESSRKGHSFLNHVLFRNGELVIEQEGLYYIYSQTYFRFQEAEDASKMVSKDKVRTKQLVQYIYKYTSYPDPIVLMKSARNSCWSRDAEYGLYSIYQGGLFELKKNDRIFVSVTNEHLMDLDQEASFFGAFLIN
UniProt O14763: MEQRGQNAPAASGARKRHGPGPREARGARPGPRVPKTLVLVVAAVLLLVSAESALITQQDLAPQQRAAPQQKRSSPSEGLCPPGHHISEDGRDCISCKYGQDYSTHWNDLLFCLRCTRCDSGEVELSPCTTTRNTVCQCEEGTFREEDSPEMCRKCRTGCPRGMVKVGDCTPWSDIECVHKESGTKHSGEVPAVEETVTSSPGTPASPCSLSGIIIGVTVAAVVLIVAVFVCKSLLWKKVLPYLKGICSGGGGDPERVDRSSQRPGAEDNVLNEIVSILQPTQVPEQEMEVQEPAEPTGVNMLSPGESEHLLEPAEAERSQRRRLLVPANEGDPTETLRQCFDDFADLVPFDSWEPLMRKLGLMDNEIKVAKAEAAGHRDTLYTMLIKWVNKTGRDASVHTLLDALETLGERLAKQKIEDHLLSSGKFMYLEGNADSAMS
UniProt Q9QZM4: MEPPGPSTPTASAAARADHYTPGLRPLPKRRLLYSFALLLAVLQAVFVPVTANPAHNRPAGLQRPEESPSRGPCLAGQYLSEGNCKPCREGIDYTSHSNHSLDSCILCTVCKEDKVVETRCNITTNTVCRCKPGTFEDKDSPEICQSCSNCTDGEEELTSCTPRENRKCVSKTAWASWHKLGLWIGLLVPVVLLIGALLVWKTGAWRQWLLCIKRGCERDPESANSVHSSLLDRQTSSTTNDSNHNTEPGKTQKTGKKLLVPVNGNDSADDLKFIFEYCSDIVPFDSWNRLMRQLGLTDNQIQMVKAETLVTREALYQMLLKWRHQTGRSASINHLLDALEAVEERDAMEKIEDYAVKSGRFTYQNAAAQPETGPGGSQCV

What was measured:
[1] = molecular target: mouse TRAIL expressed on transiently transfected 293T cells (mouse) (UniProt P50592); assay: flow cytometry, 293T cells transiently transfected with mouse TRAIL, Fc protein at 2, 20 and 50 ug, detected with anti-IgG RPE
[2] = molecular target: mouse TRAIL expressed on transiently transfected 293T cells (mouse) (UniProt P50592); assay: flow cytometry on 293T cells transfected with mouse TRAIL

binding [1] | binding [2] | Substance
binds | binds | human TRAIL-R2:Fc (extracellular domain of human TRAIL-R2 fused to human IgG constant domain, from 293T cells) (from UniProt O14763 56-210; P01857 104-330) (Fc fusion)
binds | binds | mouse TRAIL-R2:Fc (extracellular domain of mouse TRAIL-R2 fused to human IgG constant domain) (from UniProt Q9QZM4 53-180; P01857 104-330) (Fc fusion)
